According to US7217688B2, “Methods and compositions for derepression of IAP-inhibited caspase” (The Burnham Institute, priority 2005, dated 2007):
For some assays here: At least one peptide structure holds a part that was inferred or is arguable (an end, a ring closure or a residue). For some assays here: At least one structure is not confirmed: it was looked up by name or label, or the drawing left a doubt. Square brackets hold non-standard residues; d marks the D form. Peptide text beside a SMILES is read from it. * marks the point of attachment. Phe(4-Cl) = N[C@@H](Cc1ccc(Cl)cc1)C(=O)O; 2Nal = N[C@@H](Cc1ccc2ccccc2c1)C(=O)O; Fmoc = O=C(OCC1c2ccccc2-c2ccccc21)*; 2Thi = N[C@@H](Cc1cccs1)C(=O)O

Chains of the proteins cited; added tags and fusions are not shown. Residues count along the entry.
UniProt P98170, 243-497 limits assumed: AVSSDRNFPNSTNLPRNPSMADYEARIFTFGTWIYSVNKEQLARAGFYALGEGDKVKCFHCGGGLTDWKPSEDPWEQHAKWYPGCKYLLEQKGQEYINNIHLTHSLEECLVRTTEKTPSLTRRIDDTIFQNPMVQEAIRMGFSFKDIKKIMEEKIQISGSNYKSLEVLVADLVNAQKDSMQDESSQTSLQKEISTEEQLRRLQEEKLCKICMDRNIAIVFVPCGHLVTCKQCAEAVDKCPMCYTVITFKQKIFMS
UniProt P98170, whole entry: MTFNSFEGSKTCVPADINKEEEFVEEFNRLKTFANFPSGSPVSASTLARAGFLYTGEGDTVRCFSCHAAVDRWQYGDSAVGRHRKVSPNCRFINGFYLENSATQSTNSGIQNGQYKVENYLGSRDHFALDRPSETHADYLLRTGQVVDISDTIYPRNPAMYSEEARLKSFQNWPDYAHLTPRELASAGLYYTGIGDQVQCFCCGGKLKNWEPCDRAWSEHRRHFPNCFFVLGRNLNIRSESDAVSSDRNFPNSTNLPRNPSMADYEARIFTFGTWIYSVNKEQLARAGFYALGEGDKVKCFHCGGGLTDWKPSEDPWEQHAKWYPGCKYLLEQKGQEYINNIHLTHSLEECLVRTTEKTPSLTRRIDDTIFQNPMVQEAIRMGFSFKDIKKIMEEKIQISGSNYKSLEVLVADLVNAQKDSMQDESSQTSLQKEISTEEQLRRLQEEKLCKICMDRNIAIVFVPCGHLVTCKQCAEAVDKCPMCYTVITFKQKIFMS

Experiments:
[1] = system: ALVA31 prostate cancer cells; test: ALVA31 cell viability (XTT dye-reduction and trypan blue exclusion); type: cell-based; details: 24 hrs; for effect on cell viability, agent alone: peptides 40 μM, VP-16 100 μM; for effect in combination with VP-16: 40 μM with VP-16 100 μM
Procedure: The in vivo effects of TPI 792-33 or TPI 792-35, either individually or in combination with the cytotoxic anticancer drug VP-16 (etoposide), on derepression of XIAP-inhibited caspase and viability of ALVA31 cells was determined as follows. ALVA31 prostate cancer cells were seeded onto 96 well plates (10^4 cells/well) in 100 μL RPMI containing 2.5% fetal bovine serum (FBS). […] After another 24 hrs incubation, cell viability was measured by the XTT dye-reduction assay (Roche, Molecular Biochemicals; Indianapolis, Ind.) and trypan blue dye exclusion assay.

[2] = system: Jurkat leukemia cells; test: Jurkat cell death (Annexin V / propidium iodide flow cytometry); type: cell-based; details: one day treatment
Procedure: The following assay was used to test the ability of individual compounds from the TPI 1396 and TPI 1391 libraries to induce apoptosis of cultured tumor cell lines. Each of the compounds listed in Table IX was individually added to Jurkat leukemia cells (6.25×10^5 cells/mL) in RPMI containing 2.5% FBS at various concentrations for 20 hours. After incubation, cells were washed and stained with FITC-conjugated Annexin V antibody and propidium iodide (Biovision; Mountain View, Calif.). Cells were incubated for 20 minutes at room temperature in the dark and fluorescence was measured by flow cytometry (FACScan, Immunocytometry system; Becton-Dickinson; San Jose, Calif.). Cells staining positive for Annexin V were deemed non-viable.

[3] = system: CLL B-cells and AML blasts from patients; test: cell death of primary leukemia cells (annexin-V/propidium iodide); type: cell-based, human; details: 20-24 hours
[4] = target: T1, GST-BIR3RING (XIAP fragment) (Homo sapiens, UniProt P98170); test: fluorescence polarization binding / competition of rhodamine-SMAC; details: against 400 nM rhodamine-SMAC and 1 μM GST-BIR3RING; read-out: IC50 value of the SMAC titration
T1 construct: GST-BIR3RING ranged from 0.02 to 6 μM

[5] = target: full length XIAP (Homo sapiens, UniProt P98170); test: potency of IAP antagonists at restoring caspase-3 activity / SMAC competition assay (Table VIII); details: fold relative to SMAC AVPI tetrapeptide
[6] = target: XIAP binding to the SMAC peptide (Homo sapiens, UniProt P98170); test: SMAC competition / SMAC binding assay (biotinylated SMAC 7-mer, GST-XIAP)
Procedure: Peptide compounds containing unnatural amino acids in the 792 series, 792-33 and 792-35 (see FIG. 12 and 20 and Example XI), and an active compound in the TPI 1332 series, TPI 1332-69, were tested for binding activity in the SMAC binding assay as described above in Example X. For this assay, biotinylated SMAC 7-mer peptide (50 ng) was bound to 96 well plates coated with NeutrAvidin (Pierce, Rockford, Ill.) at 1 mg/ml in 100 μl per well of 50 mM HEPES pH 7.4, 100 mM NaCl, 1 mM EDTA, 10% sucrose, 0.1% CHAPS, 10 mM DTT.

[7] = target: T2, XIAP-inhibited caspase-3 (Homo sapiens, UniProt P98170); test: caspase derepression assay (XIAP-inhibited caspase-3, Ac-DEVD-AFC hydrolysis); type: biochemical; details: for activity in the derepression assay using full length XIAP: active / inactive; for LC (lowest concentration with a ratio of 2 or higher in the derepression assay): tested at 0.4, 2, 10 and 50 micrograms per milliliter
T2 construct: in the derepression assay using full length XIAP; made in house; host or cells: bacteria
Procedure: Caspase activity was assayed by release of 7-amino-4-trifluoromethyl-coumarin (AFC) from Ac-DEVD-AFC synthetic peptide using a Molecular Devices Spectromax 340 (see Zhou et al., J. Biol. Chem. 272:7797–7800 (1997)). […] The ratio of Vmax for hydrolysis of Ac-DEVD-AFC in the presence and absence of the candidate mixture was calculated and used to identify those that contain an agent that derepresses an IAP-inhibited caspase.
Screening of each mixture from the DCR390, TPI 1239 or TPI 1328 library, respectively, using the above described assay was carried out as follows. Each mixture was aliquoted in a 25 microliter volume and in duplicate to a well of a 96 well microtiter plate. […] Fluorescence of liberated AFC was immediately detected from each well for 30 minutes at 30 second intervals. The Vmax for hydrolysis of AC-DEVD-AFC from each well was measured using the softmax software package. Results of the screen for the DCR390 library are shown in Table I. Sets of mixtures having the same position fixed with different respective amino acids are arranged in 6 sections identified with the position number. […] The mixture in each section are arranged in descending order according to apparent velocity in the second column.
Briefly, recombinant proteins were produced in bacteria and purified as described, for example, in Deveraux et al., Nature 388:300–304(1997). […] Generation of fluorogenic AFC (7-amino-4-trifluoromethyl coumarin) product was measured with a spectrofluorometric plate reader in kinetic mode for 30 minutes at 37° C. using excitation and emission wavelengths of 405 nm and 510 nm, respectively. […] Control reactions lacked XIAP, and all assays were conducted in the linear range of substrate hydrolysis to avoid substrate depletion artifacts.

SMILES | effect on cell viability, agent alone [1] | cells killed ([2]; 5 μM) | cells killed ([2]; 8 μM) | apoptosis induction in primary leukemia cells [3] | IC50 [4] [µM] | effect in combination with VP-16 [1] | Relative Potency [5] | competition with XIAP binding to the SMAC peptide [6] | activity in the derepression assay using full length XIAP [7] | LC (lowest concentration with a ratio of 2 or higher in the derepression assay) [7] [µg/mL]
CC[C@H](C)[C@H](NC(=O)[C@@H]1CCCN1C(=O)[C@@H](NC(=O)[C@H](C)N)C(C)C)C(=O)O [SMAC AVPI tetrapeptide, AVPI (SEQ ID NO:4), reference compound] | no effect on cell viability | no significant effect | no significant effect | did not induce apoptosis | – | – | – | – | – | –
CC[C@H](C)[C@H](NC(=O)[C@@H]1CCCN1C(=O)[C@@H](NC(=O)[C@H](C)N)C(C)C)C(=O)N[C@@H](C)C(=O)N[C@@H](CCC(N)=O)C(=O)N[C@@H](CCCCN)C(N)=O [SMAC, H-Ala-Val-Pro-Ile-Ala-Gln-Lys-NH2] (H-AVPIAQK-NH2) | – | – | – | – | 21 | – | – | – | – | –
N[C@@H](Cc1cccs1)C(=O)N[C@@H](Cc1ccc2ccccc2c1)C(=O)N[C@@H](Cc1ccc(Cl)cc1)C(=O)N[C@@H](CCCCNC(=O)OCC1c2ccccc2-c2ccccc21)C(=O)O [TPI 792-33, L-3-(2-thienyl)-alanyl-L-(2-naphthyl)-alanyl-L-p-chloro-phenylalanyl-L-(e-fluorenylmethyloxycarbonyl)-lysine] (H-[2Thi][2Nal][Phe(4-Cl)]K(Fmoc)-OH; N-terminus and C-terminus assumed) | nearly half | – | – | – | – | sensitize | 5.2 | activity | activity | 0.4
N[C@@H](Cc1cccs1)C(=O)N[C@@H](Cc1ccc2ccccc2c1)C(=O)N[C@H](CCCCNC(=O)OCC1c2ccccc2-c2ccccc21)C(=O)N[C@@H](CCCCNC(=O)OCC1c2ccccc2-c2ccccc21)C(=O)O [TPI 792-35, L-3-(2-thienyl)-alanyl, L-(2-naphthyl)-alanyl-D-(e-fluorenylmethyloxycarbonyl)-lysyl-L-(e-fluorenylmethyloxycarbonyl)-lysine] (H-[2Thi][2Nal][dK](Fmoc)K(Fmoc)-OH; N-terminus and C-terminus assumed) | nearly half | – | – | – | – | sensitize | 2.5 | activity | activity | 2
